{"source": "patent US11446307B2", "about": "“Crystalline forms of a deoxycytidine kinase inhibitor and uses thereof” (Trethera Corporation, priority 2020, dated 2022)", "key": {"[1]": {"test_system": "myelin oligodendrocyte glycoprotein (MOG)-induced experimental autoimmune encephalomyelitis (EAE)", "experiment": "Mouse model of MOG-induced experimental autoimmune encephalomyelitis (EAE), prophylactic and therapeutic dosing", "assay_type": "in vivo", "protocol": "Adult female C57BL/6J mice were randomly allocated to experimental groups and allowed to acclimatize for one week prior to commencing the study. On Day 0 and Day 7, animals were administered an emulsion (200 μL/mouse) of MOG35-55 and complete Freund's adjuvant (CFA). […]. On Day 0 (immediately post-MOG injection) and Day 2, animals were administered with pertussis toxin (PTx, 500 ng/mouse) prepared in phosphate buffered saline (PBS, 100 μL/mouse) by intra-peritoneal injection.\nTreatment was performed twice daily (BID) prophylactically starting on Day 1 for groups 1, 2, and 4, and therapeutically starting on day 8 for group 3. All experimental groups were n=12. The administration interval was 12 hours and the administration volume was 5 mL/kg.\nBecause body weight loss is known to be an important hallmark of EAE occurring in correspondence of the appearance of the first symptoms, animals were weighed daily from the day of immunization (Day 0) until the end of the experiment. The changes in body weight observed over the course of the experiment for the different experimental groups, presented as mean±SEM, are summarized in FIG. 7. […] A marked bodyweight loss was observed immediately after the first MOG35-55 administration, after which time the body weight gradually returned to normal.\nFrom Day 0 until the end of the experiment, animals were scored daily for clinical signs of EAE to include paresis and paralysis affecting the tail and the limbs. The following scale was used: • (0) no abnormality, the animal moves and behaves normally; • (1) limp tail, the tail hangs limp when the mouse is held at the base of the tail; • (2) partial hind limb paralysis, spastic paresis or paralysis affects one hind limb; • (3) total hind limb paralysis, spastic paresis or paralysis affects both hind limbs; • (4) front and hind limb paralysis, spastic paresis or paralysis affects one or both front limbs; • (5) moribund. The changes in EAE score observed over the course of the experiment for the different experimental groups, presented as mean±SEM, are summarized in FIG. 9. […] On day 8, treatments with Compound 1 started for group 3 which was administered with vehicle until that day.\nThe cumulative disease scores for the different experimental groups, presented as mean±standard error of the mean (SEM), are summarized in FIG. 11.\nAn additional parameter considered for EAE analysis is plotting and analyzing “extended data”. […] This is a common method to represent the EAE disease profile that can be used to assess a group effect."}, "[2]": {"test_system": "IFN-γ", "experiment": "Plasma IFN-γ levels (Luminex) in MOG-EAE mice", "assay_type": "in vivo, mouse"}, "[3]": {"test_system": "tumor necrosis factor α (TNF-α)", "experiment": "Plasma TNF-α levels (Luminex) in MOG-EAE mice", "assay_type": "in vivo, mouse", "settings": "75 mg/kg P.O. BID Days 1-25 (prophylactic); vs vehicle; not statistically significant"}, "[4]": {"test_system": "myelin oligodendrocyte glycoprotein (MOG)-induced experimental autoimmune encephalomyelitis (EAE)", "experiment": "Variable dose mouse model of MOG-induced experimental autoimmune encephalomyelitis (EAE)", "assay_type": "in vivo", "protocol": "60 female C57BL/6 mice were housed for an acclimation period of 1 week. 53 mice were enrolled in the study after randomization with a body weight between 18.3-22.3 g with an average body weight of 19.7 g per group on Study day minus 1.\nFor induction of MOG-EAE, MOG35-55 peptide was administered in phosphate buffered saline (PBS) and complete Freund's adjuvant (CFA). MOG35-55 peptide in PBS was emulsified in a 1:1 (v:v) mixture with CFA via homogenization in an Omni BeadRuptor Elite using 7 mL tubes pre-filled with 2.8 mm ceramic beads. Briefly, MOG35-55 peptide was brought up to 1 mg/mL in cold PBS, and 1.75 mL aliquoted into each homogenization tube. An equal volume (1.75 mL) CFA was then added for a total volume of 3.5 mL, on ice. Two rounds of homogenization were performed using a speed of 3.5 m/s; 3 cycles of 45 seconds with 30 seconds dwell at 4° C., followed by a third round with 2 cycles of 45 seconds and 30 seconds dwell at 4° C. In between each round, samples were placed on ice for ˜15 minutes. Tubes were spun down at 300 g for 1 minute at 4° C. Mice were anesthetized under isoflurane anesthesia. 100 μL (50 μg MOG35-55) was then injected subcutaneously into the flank of each leg (for a total of two injections and 100 μg MOG35-55). On Study Day 0 and Day 2, pertussis toxin was formulated at a concentration of […] in PBS, and 100 μL (200 ng) injected into each animal by intraperitoneal injection.\nTreatment was performed BID starting on Day 1 for groups 2, 3, and 4, and once daily (QD) starting on day 1 for group 5. All experimental groups were n=12. The administration interval was 12 hours and the administration volume was 5 mL/kg.\nThe Body condition score of all animals was monitored on study Days 0, 7, 10 and then every other day. The mean body condition scores observed over the course of the experiment for the different experimental groups, presented as mean±SD, are summarized in FIG. 24.\nDisease severity was scored on Day 0, 7 and every 2 days beginning on Day 10 onward for all groups. The following scale was used: • (0) normal; • (1) loss of tail tone; • (2) loss of tail tone and hind limb weakness; • (3) severe weakness in both limbs/single limb, paralysis; • (4) paralysis of 2 or more limbs; • (5) death.\nDisease incidence rate was calculated as percentage of total animals per group starting from day 0 until termination on study day 28. The percentages of disease-free mice observed over the course of the experiment for the different experimental groups are summarized in FIG. 26. […] A Log-rank (Mantel-Cox) test comparing Vehicle BID, Compound 1 75 mg/kg BID, Compound 1 25 mg/kg BID, and Compound 1 100 mg/kg QD gives a p-value of 0.039 with median time to disease of 18 days, 19 days, 18 days, and 20 days, respectively."}, "[5]": {"settings": "75 mg/kg P.O. BID Days 1-25 (prophylactic), vs vehicle"}, "[6]": {"settings": "75 mg/kg P.O. BID Days 8-25 (therapeutic), vs vehicle"}, "[7]": {"settings": "75 mg/kg P.O. BID, both prophylactic and therapeutic groups, vs vehicle"}}, "note": "“Also recorded” adds a separate entry of the source. At least one structure is not confirmed: it was looked up by name or label, or the drawing left a doubt.", "data": [{"smiles": "COc1ccc(-c2nc([C@@H](C)Sc3nc(N)cc(N)n3)c(C)s2)cc1OCCN1CCOCC1", "note": "[Compound 1, (R)-2-((1-(2-(4-methoxy-3-(2-morpholinoethoxy)phenyl)-5-methylthiazol-4-yl)ethyl)thio)pyrimidine-4,6-diamine]", "values": [{"measurement": "AUC of EAE clinical scores", "setting": "[1]; [5]", "value": "trend towards a reduced AUC value"}, {"measurement": "EAE clinical score / disease profile over time", "setting": "[1]; [5]", "value": "amelioration of symptoms in comparison to vehicle-treated ones; also recorded: did not prevent or improve the clinical EAE profile"}, {"measurement": "percentage of symptoms free animals", "setting": "[1]; [5]", "value": "No differences"}, {"measurement": "AUC of percentage of bodyweight changes in comparison to baseline", "setting": "[1]; 75 mg/kg P.O. BID Days 1-25 (prophylactic), vs vehicle, p=0.72", "value": "small trend towards a reduced AUC value"}, {"measurement": "AUC of EAE clinical scores", "setting": "[1]; [6]", "value": "reduced the calculated AUC indicating amelioration of the symptoms. However, despite showing a clear tendency, it did not reach significant threshold; also recorded: trend towards a reduced AUC value"}, {"measurement": "AUC of extended disease scores", "setting": "[1]; [6]", "value": "reduced the calculated AUC indicating amelioration of the symptoms. However, despite showing a clear tendency, it did not reach significant threshold"}, {"measurement": "percentage of symptoms free animals", "setting": "[1]; 75 mg/kg P.O. BID Days 8-25 (therapeutic), vs vehicle at any analyzed time point", "value": "higher percentage of animals did not show disease symptoms"}, {"measurement": "extended disease score profile (all animals scored until Day 25)", "setting": "[1]; 75 mg/kg P.O. BID Days 8-25 (therapeutic), vs vehicle, p<0.0001", "value": "significantly ameliorated the disease profile"}, {"measurement": "EAE clinical score / disease profile over time", "setting": "[1]; 75 mg/kg P.O. BID Days 8-25 (therapeutic, vehicle Days 1-7), vs vehicle", "value": "significant remission; also recorded: statistically significantly ameliorated the disease profile"}, {"measurement": "AUC of percentage of bodyweight changes in comparison to baseline", "setting": "[1]; [7]", "value": "no significant differences"}, {"measurement": "spleen weight at termination", "setting": "[1]; [7]", "value": "No differences"}, {"measurement": "plasma IFN-γ level", "setting": "[2]; 75 mg/kg P.O. BID Days 8-25 (therapeutic)", "value": "almost matching that of the dexamethasone group"}, {"measurement": "plasma IFN-γ level", "setting": "[2]; 75 mg/kg P.O. BID, prophylactic and therapeutic treatments, vs vehicle, not statistically significant (p=0.096)", "value": "decrease in IFN-γ"}, {"measurement": "plasma TNF-α level", "setting": "[3]", "value": "very slight decreases"}, {"measurement": "body condition score", "setting": "[4]; Group 3: 75 mg/kg PO BID, day 1-28, study Day 28 only (p<0.01)", "value": "statistically significant reduction in body condition scores"}, {"measurement": "body condition score", "setting": "[4]; Group 4: 25 mg/kg PO BID, day 1-28, vs Group 2 (Vehicle), Days 24, 26 and 28", "value": "statistically significant effect"}, {"measurement": "body weight loss", "setting": "[4]; Group 5: 100 mg/kg PO QD (PM), day 1-28, vs Group 2 (Vehicle), Days 19-20 and day 22 to day 28", "value": "significantly less body weight loss"}, {"measurement": "disease incidence rate and onset", "setting": "[4]; Group 5: 100 mg/kg PO QD, day 1-28", "value": "lower incidence rate and later disease onset"}, {"measurement": "body condition score", "setting": "[4]; Group 5: 100 mg/kg PO QD, day 1-28, vs Group 2 (Vehicle), Days 22, 24, 26 and 28", "value": "statistically significant improvement"}, {"measurement": "spleen weight on study Day 28", "setting": "[4]; Group 5: 100 mg/kg PO QD, vs group 2 (Vehicle)", "value": "significantly higher spleen weights"}, {"measurement": "mean disease score (disease severity)", "setting": "[4]; Group 5: 100 mg/kg PO QD, vs vehicle group, study day 18 to 28", "value": "statistically significantly lower"}]}]}
